## Library screen at single concentrations

Mtb cholesterol medium: 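Whole-cell growth test on Mycobacterium tuberculosis, read after 4 days in a medium based on cholesterol and the lipid DPPC; the read-out is not stated. Concentration: 500 µM. Direction is inferred from retests: higher values go with more growth inhibition. Of about 18,000 compounds tested this way, about 900 (5%) reached 50% or more in at least one test.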
Mtb glucose medium: 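Growth of Mycobacterium tuberculosis over 3 days (7H9 medium with glucose and tyloxapol); the read-out is not stated. Tested at 500 µM. Direction is inferred from retests: higher values go with more growth inhibition. Size under these conditions: about 18,000 compounds, about 1,400 of them at 50% or above in at least one test.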

Each number is a percent effect as filed.
How 0% and 100% were set is not recorded. Most values in the screen are low, and negative values occur.
This is an unselected part of the compounds tested.

* N#CCCN(CCC#N)C(=O)COC(=O)c1ccoc1 : Mtb cholesterol medium: -10.77%; Mtb glucose medium: 4.179%
* NCc1cc(OC2CCC2)ccn1 : Mtb cholesterol medium: 14.82%; Mtb glucose medium: 20.23%
* CC(C)(C)CC(O)CNC(=O)c1ccc[nH]1 (centres unmarked) : Mtb cholesterol medium: -1.461%; Mtb glucose medium: 27.46%
* O=C(NC1CCCOc2ccc(F)cc21)c1c[nH]nn1 (centres unmarked) : Mtb cholesterol medium: 21.41%; Mtb glucose medium: 27.71%
* NC(=O)C1CCCN1C(=O)C1CCNCC1 (centres unmarked) : Mtb cholesterol medium: 7.657%; Mtb glucose medium: 6.592%
* c1ccc(NCCNc2ccccn2)cc1 : Mtb cholesterol medium: 72.32%; Mtb glucose medium: 72.75%
* Cc1cc(C)n(CC2CCNCC2)n1 : Mtb cholesterol medium: -19.42%; Mtb glucose medium: -22.62%
* COC1(c2noc(-c3ccco3)n2)CCOCC1 : Mtb cholesterol medium: 28.69%; Mtb glucose medium: 32.97%
* CC(C)C[C@@H](N)C(=O)NCc1ccc2nsnc2c1 : Mtb cholesterol medium: 27.53%; Mtb glucose medium: 45.27%
* Cc1n[nH]c(C)c1NC(=O)C(C)CN (centres unmarked) : Mtb cholesterol medium: 6.107%; Mtb glucose medium: 8.77%
* CC(C(=O)Nc1ccc(C#N)cc1)N1CCC(O)CC1 (centres unmarked) : Mtb cholesterol medium: 13.39%; Mtb glucose medium: 12.05%
* Nc1nc(-c2cncc(O)c2)n[nH]1 : Mtb cholesterol medium: 0.8669%; Mtb glucose medium: 11.73%
* O=C1NCCNC1c1ccccc1Cl (centres unmarked) : Mtb cholesterol medium: 1.164%; Mtb glucose medium: 3.9%
* CCOCCOC(=O)C1COCCN1CC (centres unmarked) : Mtb cholesterol medium: -11.07%; Mtb glucose medium: -6.258%
* Cc1cnccc1NCCNC(=O)c1ccncc1 : Mtb cholesterol medium: 6.63%; Mtb glucose medium: 7.224%
* Cc1c(C(=O)NC[C@H]2CCCN2)n(C)c2ccccc12 : Mtb cholesterol medium: 51.09%; Mtb glucose medium: 50.21%
* C=C(C)CN(CC)C(=O)C1CCCN(C(=O)C(C)C)C1 (centres unmarked) : Mtb cholesterol medium: 7.018%; Mtb glucose medium: 25.34%
* O=C(c1ccc(OC(F)(F)F)cc1)N1CCC(O)CC1 : Mtb cholesterol medium: 29.1%; Mtb glucose medium: 25.05%
* Cn1ccnc1CN(Cc1ccc(CO)o1)C1CC1 : Mtb cholesterol medium: -4.107%; Mtb glucose medium: 2.318%
* NCCC(=O)N1CCC2(CC1)NCCc1nc[nH]c12 : Mtb cholesterol medium: -13.25%; Mtb glucose medium: -5.259%
* NC1CC(c2cc(NCCN3CCOCC3)ncn2)C1 (centres unmarked) : Mtb cholesterol medium: -3.845%; Mtb glucose medium: 12.13%
* CCC[C@H]1CN(C(=O)Cc2c[nH]c(=O)[nH]c2=O)C[C@@H]1N : Mtb cholesterol medium: -1.208%; Mtb glucose medium: -6.082%
* COCCN(C)S(=O)(=O)c1cc(F)c(C)cc1F : Mtb cholesterol medium: 19.02%; Mtb glucose medium: 51.44%
* COc1ccccc1OCC(O)CN1CCOCC1 (centres unmarked) : Mtb cholesterol medium: -5.89%; Mtb glucose medium: -6.998%
* COC(=O)c1ccc(C(=O)NC2(C#N)CCCC2)cc1 : Mtb cholesterol medium: 46.95%; Mtb glucose medium: 43.68%
* N#CCCNCc1ccco1 : Mtb cholesterol medium: -7.868%; Mtb glucose medium: 13.44%
* CC(CN)N(C)C(=O)Cc1cc(F)ccc1F (centres unmarked) : Mtb cholesterol medium: -1.301%; Mtb glucose medium: -2.285%
* CC(=O)NCCN1CCN(Cc2ccccc2F)CC1 : Mtb cholesterol medium: 6.557%; Mtb glucose medium: 8.854%
* COc1ccnc(NC(C(N)=O)C(C)C)n1 (centres unmarked) : Mtb cholesterol medium: 0.6373%; Mtb glucose medium: -1.635%

The last 3 entries again:

SMILES	Mtb cholesterol medium	Mtb glucose medium
CC(CN)N(C)C(=O)Cc1cc(F)ccc1F (centres unmarked)	-1.301	-2.285
CC(=O)NCCN1CCN(Cc2ccccc2F)CC1	6.557	8.854
COc1ccnc(NC(C(N)=O)C(C)C)n1 (centres unmarked)	0.6373	-1.635

The values are deposited in ChEMBL (CHEMBL3988442, “University of Dundee, Small-Polar-MMV Screening Library” (2021)).